No constants are given. Whether binding was seen depends on the method and setting. For part of these data: Binding seen in cells or lysates may run through a third protein. Some binding calls cover weakened binding; strength is not graded here.
Key:
[1] = molecular target: Prelamin-A/C (human) (UniProt P02545); assay: LMNA IP followed by Western blot with antibodies to SIRT6
[2] = molecular target: Prelamin-A/C (human) (UniProt P02545); assay: co-IP with SIRT6 antibodies and LMNA Western blot, and reciprocal co-IP, cumate SIRT6 fibroblasts
[3] = molecular target: Prelamin-A/C (human) (UniProt P02545); assay: SIRT6 IP followed by Western blot with antibodies to LMNA

By UniProt entry, the sequences of proteins in these tests, tags left out. Where a name states a change or a piece, a line headed by the entry shows the natural chain unless it says otherwise. Residues count along the entry.
UniProt P02545, residues 1-646: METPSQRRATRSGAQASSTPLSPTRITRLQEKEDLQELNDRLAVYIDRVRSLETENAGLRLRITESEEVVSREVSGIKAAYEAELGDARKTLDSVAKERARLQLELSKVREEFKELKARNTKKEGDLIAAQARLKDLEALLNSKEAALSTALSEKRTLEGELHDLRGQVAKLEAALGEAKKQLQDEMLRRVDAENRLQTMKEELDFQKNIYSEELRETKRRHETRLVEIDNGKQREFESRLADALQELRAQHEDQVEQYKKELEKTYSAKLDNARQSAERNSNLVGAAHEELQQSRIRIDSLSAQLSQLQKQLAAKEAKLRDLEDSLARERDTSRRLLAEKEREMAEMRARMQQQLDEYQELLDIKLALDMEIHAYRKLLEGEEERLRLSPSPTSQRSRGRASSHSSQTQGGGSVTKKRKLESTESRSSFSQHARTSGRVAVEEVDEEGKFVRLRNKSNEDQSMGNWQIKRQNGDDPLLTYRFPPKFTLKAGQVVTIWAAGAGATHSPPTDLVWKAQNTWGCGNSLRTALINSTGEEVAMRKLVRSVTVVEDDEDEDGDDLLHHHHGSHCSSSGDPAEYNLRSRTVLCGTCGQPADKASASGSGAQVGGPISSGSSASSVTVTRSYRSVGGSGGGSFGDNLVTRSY
UniProt Q8N6T7: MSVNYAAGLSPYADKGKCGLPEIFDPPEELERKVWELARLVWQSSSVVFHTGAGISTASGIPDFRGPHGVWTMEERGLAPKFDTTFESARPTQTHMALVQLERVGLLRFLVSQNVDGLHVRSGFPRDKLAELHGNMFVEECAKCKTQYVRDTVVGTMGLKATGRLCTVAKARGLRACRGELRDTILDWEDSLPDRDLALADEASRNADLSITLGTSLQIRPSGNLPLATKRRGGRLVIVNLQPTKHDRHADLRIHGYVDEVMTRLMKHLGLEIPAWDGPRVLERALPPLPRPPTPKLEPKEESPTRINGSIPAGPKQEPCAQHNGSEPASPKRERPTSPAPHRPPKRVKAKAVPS

Measured: binding

SIRT6 N308K A313S variant (centSIRT6) (from UniProt Q8N6T7 2-355) (enzyme)
binds: all assays above

wild type SIRT6 (from UniProt Q8N6T7 2-355) (enzyme)
binds: all assays above
